No constants are given. Whether binding was seen depends on the method and setting. In cells and extracts the contact can be indirect. Here binding means that the protein was enriched with, or labelled near, the bait; the list need not be complete.

Sequences of proteins named here, by UniProt entry; tags and fusion partners are left off.
UniProt P03182: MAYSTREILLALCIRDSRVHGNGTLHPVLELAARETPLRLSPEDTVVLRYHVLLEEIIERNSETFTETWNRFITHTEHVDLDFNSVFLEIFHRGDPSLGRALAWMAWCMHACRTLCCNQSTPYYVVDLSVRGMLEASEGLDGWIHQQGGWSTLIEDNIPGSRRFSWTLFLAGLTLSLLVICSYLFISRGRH
UniProt Q7Z434: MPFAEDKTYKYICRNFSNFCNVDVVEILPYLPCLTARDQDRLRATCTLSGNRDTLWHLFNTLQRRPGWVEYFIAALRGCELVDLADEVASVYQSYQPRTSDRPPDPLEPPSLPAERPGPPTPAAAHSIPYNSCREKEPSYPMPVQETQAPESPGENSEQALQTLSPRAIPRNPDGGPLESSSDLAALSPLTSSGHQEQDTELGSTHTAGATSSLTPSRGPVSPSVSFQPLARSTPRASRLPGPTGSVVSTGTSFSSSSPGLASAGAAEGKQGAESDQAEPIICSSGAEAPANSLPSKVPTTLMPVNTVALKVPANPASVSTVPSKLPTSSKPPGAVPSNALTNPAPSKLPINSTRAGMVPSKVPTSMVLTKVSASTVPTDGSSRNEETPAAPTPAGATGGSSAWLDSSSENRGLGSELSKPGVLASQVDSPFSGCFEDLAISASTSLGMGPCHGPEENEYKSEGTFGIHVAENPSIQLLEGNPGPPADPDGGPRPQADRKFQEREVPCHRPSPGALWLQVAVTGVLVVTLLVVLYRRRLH

Assay in all cases: affinity purification with mass spectrometry
Test [1] concerns the target EBV BHRF1, HA-tagged (pLIX402-BHRF1) (Epstein-Barr virus (type I)) (UniProt P03182).
In test [2] the target is T1, EBV viral helicase BBLF4 (Epstein-Barr virus (type I)) (UniProt P03214).
T1 sequence: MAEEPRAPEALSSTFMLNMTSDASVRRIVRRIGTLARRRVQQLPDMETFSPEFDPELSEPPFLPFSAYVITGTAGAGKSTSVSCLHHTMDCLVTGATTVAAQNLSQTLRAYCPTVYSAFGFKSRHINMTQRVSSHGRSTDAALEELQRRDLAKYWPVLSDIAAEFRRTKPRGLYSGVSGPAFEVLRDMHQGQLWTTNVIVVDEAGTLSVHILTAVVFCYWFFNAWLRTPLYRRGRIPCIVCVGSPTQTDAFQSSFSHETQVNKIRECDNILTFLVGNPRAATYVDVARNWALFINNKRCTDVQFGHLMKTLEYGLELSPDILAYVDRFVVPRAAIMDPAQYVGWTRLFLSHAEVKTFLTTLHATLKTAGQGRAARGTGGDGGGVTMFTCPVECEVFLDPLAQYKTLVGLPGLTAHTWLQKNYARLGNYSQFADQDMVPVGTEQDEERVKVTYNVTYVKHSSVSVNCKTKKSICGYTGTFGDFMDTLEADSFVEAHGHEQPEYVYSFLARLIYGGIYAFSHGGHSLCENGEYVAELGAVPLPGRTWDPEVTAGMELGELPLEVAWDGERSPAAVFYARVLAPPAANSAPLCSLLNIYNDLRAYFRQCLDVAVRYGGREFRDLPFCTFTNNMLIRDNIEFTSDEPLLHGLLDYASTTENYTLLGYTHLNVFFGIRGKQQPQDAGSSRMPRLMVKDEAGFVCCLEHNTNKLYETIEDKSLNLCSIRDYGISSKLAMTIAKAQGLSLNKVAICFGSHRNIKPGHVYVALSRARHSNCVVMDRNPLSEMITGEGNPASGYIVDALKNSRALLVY

Test [3] concerns the target EBV tegument protein BGLF2, HA-tagged (pLIX402-BGLF2) (Epstein-Barr virus (type I)).

For “mitochondrial antiviral-signaling protein (MAVS), endogenous (from UniProt Q7Z434 1-540)”, the binding entry in test [1] is “binds”.

B1: EBV primase BSLF1 (enzyme, UniProt P03193 1-874)
chain: MSAPVVIKALVASNTDIAEAILDAILSRPDEGFRLFCLCHNASPLHHVAGSLVELQLHLPKKRLTSQSRCGLVLTLHLPAEEAFPFLRGLTPLTADRLSTYLDRAGALRSLTPLVELLTLSAKKQPQGDARGRVAWLRPKIVGCLRRIYRVNISARWFISTFGSHEAQFVLVTAAYYFWGIPCTIETLAHLTELFTSESGQSLAAVTSLAELGEVFGSSAWAEQTEAFAHFAHEKLRRDSREIRAVARTIDAYRGRLPLASADLVRYVYLAHAQCFNEGTFKRYSQLTSMGEIGCLPSGGVVLPSLLDRGFAEHMRTYFTRETYLAEHVRVQQLKIRMEPPAPYTWDPDPDDGLMRAWAGLSVDVARELVELARWHADEGPTYPPTLQGFLCLAGQATCRGQWNPKEQFLPPTVLRRVQRLPVFLCHFADRHYFVMTAADPFSSHLAEVVSTPTNCRLPDTCLTRALSYTPVYYSQNSLSEQLFVSRHEYFNPRLPVCNLVLDLDLKIKGAPWSLEEIYDLCRTVRREVLRLMRRLGPVSRAHPVYFFKSACPPADPDNMEDVLPFCICTGKLGFRVITPLPRGHAIVGTSAVQGFVSVLQKLMGLTACLRRMRHKIKEIGAPLFDSGVYHAGRCIRLPHTYKVDRGGGLSRQLRLFVCHPEEEDKHSYVKNALNIQNLLHHSLHVGWPAPKTFCYHIADDGRDYLIQRTRETLPPTVENVCAMIEGHLGLDLVAWVSSCIWPSLMSTLATAVPEDKFPQFLHVTFEQTGPNLVQVCHARGRNFACLRHTHRASSKNVRVFLVLYYTSQAITVTFMSQCFAGRCGANQPTAHFSISVPASRIINRAEASQDSTTSQLARRRDRQDGSFSETLPN
Regarding B1, the binding entry in test [2] is “binds”.

B2: GMIP, endogenous (protein, UniProt Q9P107 1-970)
chain: MDAAEPGLPPGPEGRKRYSDIFRSLDNLEISLGNVTLEMLAGDPLLSEDPEPDKTPTATVTNEASCWSGPSPEGPVPLTGEELDLRLIRTKGGVDAALEYAKTWSRYAKELLAWTEKRASYELEFAKSTMKIAEAGKVSIQQQSHMPLQYIYTLFLEHDLSLGTLAMETVAQQKRDYYQPLAAKRTEIEKWRKEFKEQWMKEQKRMNEAVQALRRAQLQYVQRSEDLRARSQGSPEDSAPQASPGPSKQQERRRRSREEAQAKAQEAEALYQACVREANARQQDLEIAKQRIVSHVRKLVFQGDEVLRRVTLSLFGLRGAQAERGPRAFAALAECCAPFEPGQRYQEFVRALRPEAPPPPPPAFSFQEFLPSLNSSPLDIRKKLSGPLPPRLDENSAEPGPWEDPGTGWRWQGTPGPTPGSDVDSVGGGSESRSLDSPTSSPGAGTRQLVKASSTGTESSDDFEERDPDLGDGLENGLGSPFGKWTLSSAAQTHQLRRLRGPAKCRECEAFMVSGTECEECFLTCHKRCLETLLILCGHRRLPARTPLFGVDFLQLPRDFPEEVPFVVTKCTAEIEHRALDVQGIYRVSGSRVRVERLCQAFENGRALVELSGNSPHDVSSVLKRFLQELTEPVIPFHLYDAFISLAKTLHADPGDDPGTPSPSPEVIRSLKTLLVQLPDSNYNTLRHLVAHLFRVAARFMENKMSANNLGIVFGPTLLRPPDGPRAASAIPVTCLLDSGHQAQLVEFLIVHYEQIFGMDELPQATEPPPQDSSPAPGPLTTSSQPPPPHLDPDSQPPVLASDPGPDPQHHSTLEQHPTATPTEIPTPQSDQREDVAEDTKDGGGEVSSQGPEDSLLGTQSRGHFSRQPVKYPRGGVRPVTHQLSSLALVASKLCEETPITSVPRGSLRGRGPSPAAASPEGSPLRRTPLPKHFEITQETARLLSKLDSEAVPRATCCPDVQPEEAEDHL
Regarding B2, the binding entry in test [3] is on record as “binds”.

Values taken from PMC10372749.
